Consider one molecule from PMC5515827.

Experiment [1] deals with Flag-tagged truncated VP2, conserved C-terminal domain 331-452aa (infectious bursal disease virus strain Lx). Description: co-IP; HEK293T cells transfected with full-length pRK5-flag-vp2 (WT), truncated mutants or empty vector; lysates precipitated with anti-Flag monoclonal antibody, blotted with anti-ORAOV1 (endogenous ORAOV1).
The target of experiment [2] is Flag-tagged truncated VP2, hypervariable region 211-331aa (infectious bursal disease virus strain Lx). Described as above.

These are yes or no findings as the source states them, for the method shown. In cells and extracts the contact can be indirect. Binding can be weak; no strength is given.

B1: endogenous human ORAOV1 (protein, UniProt Q8WV07 1-137)
chain: MAGSQDIFDAIVMADERFHGEGYREGYEEGSSLGVMEGRQHGTLHGAKIGSEIGCYQGFAFAWKCLLHSCTTEKDSRKMKVLESLIGMIQKFPYDDPTYDKLHEDLDKIRGKFKQFCSLLNVQPDFKISAEGSGLSF
Consider B1, for which the binding entry in experiment [1] and in experiment [2] was “binds” each time.
